Source: PubChem BioAssay AID2685 (National Center for Advancing Translational Sciences (NCATS), 2010)
Some of the results follow. These are further read-outs of the screen, such as a control signal, another cell line or another target. No call is given for them. The list favours compounds with an active or inconclusive main result. The note in brackets gives the kind of curve behind each potency; many fits are weak.

Assay: qHTS Assay for Lipid Storage Modulators in Drosophila S3 Cells;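 on cell number change: cells counted by Cell Tracker Red CMTPX staining in the red channel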
Conditions: BODIPY lipid droplet fluorescence, 18-24 h; for cell number change: measured here: cell count max response, cells fed with added oleic acid
In short: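 Laser-scanning cytometry quantifies lipid droplet accumulation (500–530 nm total intensity; droplet/cell object ratio) in oleic acid-fed (400 uM added) Drosophila S3 cells treated with a concentration series. 20 uM Triacsin C defined 100% inhibition.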

[1] = measured here: cell number channel AC50, cells fed with added oleic acid
[2] = measured here: lipid fluorescence (Fed channel) AC50, cells fed with added oleic acid

SMILES | cell number change | AC50 [1] | AC50 [2]
Cc1ccc2nc(N(CCCN(C)C)C(=O)c3ccc(S(=O)(=O)N4CCc5ccccc5C4)cc3)sc2c1 | -40.7% | 13 µM [falling, partial curve, poor fit] | 16.4 µM [falling, partial curve]
CC(C)OC(=O)CSc1nnc(Cc2ccccc2)n1C | 0.489% |  | 0.82 µM [falling, full curve, poor fit]
Cc1ccc(S(=O)(=O)N2CCCCC2)cc1NC(=O)COC(=O)c1ccc2c(c1)OCO2 | 23.5% |  | 0.0517 µM [rising, full curve]
COc1ccc(OC)c(NC(=O)Nc2cc(NC(=O)Nc3cc(OC)ccc3OC)c(C)nc2C)c1 | -10.3% |  | 9.2 µM [rising, partial curve, poor fit]
Cc1ccc(-n2ccc(=O)c(-c3ccnc(SCc4cccc(Cl)c4)n3)n2)cc1 | -38.1% | 25.9 µM [falling, single point] | 2.91 µM [falling, partial curve, poor fit]
O=C(CN1CCN(S(=O)(=O)c2cc(C(F)(F)F)ccc2Cl)CC1)N1CCc2ccccc2C1 | 8.14% |  | 6.51 µM [rising, single point]
Cc1nonc1C1CCCN1C(=O)c1cc(COc2cccc(C(F)(F)F)c2)on1 (stereo not drawn) |  |  | 6.51 µM [rising, single point]
CC1CCN(C(=O)CSc2nnc(-c3cccnc3)n2C2CCCCC2)CC1 | 8.47% |  | 1.46 µM [rising, partial curve]
O=C(CCC(=O)N1CCN(Cc2ccc(F)cc2)CC1)Nc1nnc(C2CCCCC2)s1 | 19.6% |  | 29.1 µM [rising, single point]
CN(C(=O)COC(=O)CNC(=O)c1sc2ccccc2c1Cl)c1ccccc1 | 47.6% | 20.6 µM [rising, single point] | 6.51 µM [rising, single point]
COC(=O)/C(=C\c1ccc(O)cc1)c1nc2ccccc2[nH]1 |  | 6.51 µM [rising, single point] | 
CC1CCN(C(=O)CCc2nnc3ccc(NCc4ccco4)nn23)CC1 | -16.1% |  | 0.731 µM [falling, single point]
COc1ccccc1C(=O)N1CCC(C(=O)c2ccc(F)cc2)CC1 | 18.9% |  | 1.16 µM [rising, partial curve]
Cn1c(=O)c(=O)n(C)c2cc(S(=O)(=O)N3CCCC3C(=O)Nc3ccccc3F)ccc21 (stereo not drawn) | 1.44% | 0.00517 µM [rising, full curve, poor fit] | 
CCCn1nc(C(=O)Nc2cccc(C(=O)OC)c2)c2ccccc2c1=O | -21.1% |  | 0.0731 µM [rising, full curve]
CCC(NS(=O)(=O)c1ccc(C)cc1)C(=O)Nc1ccc(NC(C)=O)cc1 (stereo not drawn) | 9.14% |  | 0.82 µM [rising, partial curve]
Cc1ccc(F)cc1NC(=O)c1ccc2c(c1)OCO2 | 136% | 25.9 µM [rising, single point] | 
COc1ccc(OC)c(NS(=O)(=O)c2ccc3c(c2)CCC(=O)N3)c1 | 29.2% | 4.61 µM [rising, full curve, poor fit] | 
CC(=O)c1ccc(NC(=O)Cc2cccs2)cc1 | 8.21% |  | 3.26 µM [rising, single point]
O=C(NCC1CCCO1)c1ccc(C(=O)NCC2CCCO2)cc1 (stereo not drawn) | -88% | 18.4 µM [falling, single point] | 18.4 µM [falling, single point]

Look-ups from the results shown:
CCCn1nc(C(=O)Nc2cccc(C(=O)OC)c2)c2ccccc2c1=O – AC50 [2]: 0.0731 µM [rising, full curve]
Cc1ccc(-n2ccc(=O)c(-c3ccnc(SCc4cccc(Cl)c4)n3)n2)cc1 – AC50 [1]: 25.9 µM [falling, single point]

Next part

SMILES | cell number change | AC50 [1] | AC50 [2]
O=C(NCc1ccc(Cl)cc1)c1ccc2c(=O)n(CC3CCCO3)c(=S)[nH]c2c1 (stereo not drawn) | 18.9% |  | 
COc1ccccc1NS(=O)(=O)c1ccc(Cl)cc1 | -30.7% | 14.6 µM [falling, partial curve, poor fit] | 
COCCCn1c(=O)c2sccc2n2c(CCCC(=O)NCc3ccc(OC)cc3)nnc12 | -2.29% |  | 3.26 µM [rising, single point]
COC(=O)c1cccc(COC(=O)CNC(=O)c2ccco2)c1 | 10.2% |  | 0.206 µM [falling, full curve, poor fit]
O=C(CCNC(=O)c1ccccc1Cl)NC1=NCCS1 | -25.8% |  | 
COc1ccc(S(=O)(=O)N2CCOCC2)cc1NC(=O)Cc1ccc2c(c1)OCCO2 | -22% |  | 29.1 µM [falling, single point]
NC(=O)CSc1oc(-c2ccco2)nc1S(=O)(=O)c1ccc(Cl)cc1 | 22.2% |  | 3.66 µM [falling, full curve, poor fit]
CCCOc1ccc(N2C(=O)CC(N(Cc3ccc(S(N)(=O)=O)cc3)C(=O)CC)C2=O)cc1 (stereo not drawn) | -18.7% |  | 
O=[N+]([O-])c1ccc(CSC2=NCCN2)cc1 | 12.9% |  | 0.82 µM [rising, single point]
COc1ccc(N(C)C(=O)c2sc(Cl)nc2C)cc1 | -9.89% |  | 
COc1ccc(NC(=O)c2ccc(Cl)nc2)cc1S(=O)(=O)N1CCCCC1 | -20.3% |  | 
COc1ccc(C2CC(=O)C(C=NCC(C)C)=C(O)C2)cc1 (stereo not drawn) | 22.1% | 0.13 µM [rising, full curve, poor fit] | 29.1 µM [rising, single point]
COc1cc(OC)cc(-n2nnnc2SCC(=O)Nc2nc3c(s2)CCCC3)c1 |  |  | 4.11 µM [rising, partial curve]
COc1ccccc1-c1noc(CCC(=O)Nc2cc(C(F)(F)F)ccc2Cl)n1 | -13.6% |  | 0.366 µM [rising, partial curve, poor fit]
COc1ccccc1N1C(=O)c2cccc3c(N(C)CCO)ccc(c23)C1=O | -8.47% |  | 16.4 µM [falling, single point]
O=C(c1ccc(Cl)nc1)N1CCN(S(=O)(=O)c2ccc3c(c2)OCCO3)CC1 | -14.4% |  | 
O=C(NC(NNc1ccc([N+](=O)[O-])cc1)(C(F)(F)F)C(F)(F)F)c1ccc(F)cc1 | 10% |  | 
CCOc1ccc(-n2c(C)nc3cc(C(=O)NCC4CCCO4)ccc32)cc1 (stereo not drawn) |  |  | 6.51 µM [rising, single point]
OC(COc1ccccc1)CN1CCN(C(c2ccccc2)c2ccccc2)CC1 (stereo not drawn) | -39.2% | 14.6 µM [falling, partial curve, poor fit] | 6.51 µM [falling, single point]
